The campaign covered roughly 350,000 compounds. About 220 (0.063%) were called active. This list was built around the results that the source calls inconclusive (neither active nor inactive); the mix of calls is not that of the screen. The call rests on the fitted dose curve; in most records, active means well fitted activation curve with a large enough effect; inconclusive means small, poorly fitted or top-dose-only effect; inactive means no such curve, though single readings can be large or run the other way. Where the call is inconclusive, the potency comes from a doubtful curve fit.
test: qHTS for Activators of Integrin-Mediated Alleviation for Muscular Dystrophy; conditions: alpha7betagal myoblasts, beta-gal FDG fluorescence, 48 h; activation: at 38.3 µM (top of the series); further: nearly all actives have a fitted effect of over 60% in size;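 on activation: 100% = response of the positive control SU9516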
Procedure, shortened: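 Alpha7betagal+/- myoblasts (passage 13) were plated 16-24 hr, then exposed to compounds (1:260 dilution of DMSO stock) for 48 hours at 37C. After MPER lysis, β-galactosidase reporter activity was read as FDG fluorescence (ex 480/em 540) after 30 minutes.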
Potency means the concentration at half of the fitted maximal effect.

SMILES | Potency | activation
CCOC(=O)Nc1ccc2c(c1)N(C(=O)CCN(C)C)c1ccccc1CC2 | inconclusive: 3.16 µM [activator, single point] | –
CN(Cc1ccon1)C(=O)CC1C(=O)NCCN1Cc1cccc(Oc2ccccc2)c1 (centres undefined) | inconclusive: 12.6 µM [activator, single point] | –
COC(=O)Cc1[nH]n(-c2nc3ccccc3s2)c(=O)c1C(C)=Nc1ccc(OC)cc1 | inconclusive: 0.891 µM [activator, full curve, poor fit] | –
Cc1ccc(Oc2ccc(NC(=O)CSc3n[nH]c(N)n3)cc2)cc1 | inconclusive: 5.01 µM [activator, single point] | –
O=C(NCC1CCCCC1)c1cc(S(=O)(=O)N2CCCCC2)ccc1N1CCOCC1 | inconclusive: 28.2 µM [activator, single point] | –
CN(C)S(=O)(=O)c1ccc(SCC(=O)Nc2cccc(S(=O)(=O)N3CCCC3)c2)nc1 | inconclusive: 3.16 µM [activator, single point] | –
O=C(NC1CCCC1)C1CC(c2ccc(F)cc2)=NO1 (centres undefined) | inconclusive: 5.01 µM [activator, single point] | –
CC(C)(C)c1ccccc1NC(=O)Cn1c(=O)cnc2ccccc21 | inconclusive: 3.16 µM [activator, single point] | –
O=C(O)c1ccc(N/N=C/C=C/c2ccc([N+](=O)[O-])o2)cc1 | inconclusive: 11.2 µM [activator, partial curve, poor fit] | –
Cc1ccnn1C(C)C(=O)O (centres undefined) | inconclusive: 2.82 µM [activator, partial curve, poor fit] | –
C[C@@H]1CN([C@H](C)CO)C(=O)CCCn2cc(nn2)CO[C@H]1CN(C)C(=O)c1cc(-c2ccccc2)on1 | inconclusive: 5.01 µM [activator, single point] | –
Cc1ccc(Nc2nc(-c3cccs3)cs2)nc1 | – | inactive: 56.8%
Cc1cc(SCC(=O)Nc2cccc(S(N)(=O)=O)c2)c(C)cc1Br | inconclusive: 3.16 µM [activator, single point] | –
COc1ccccc1N(CC(=O)NC1CCCCC1)S(=O)(=O)c1cccs1 | inconclusive: 3.55 µM [activator, single point] | –
O=C(CNC(=O)c1ccc(F)cc1)NCc1ccccn1 | inconclusive: 2.82 µM [activator, single point] | –
NC(=O)N/N=C/c1cn(-c2ccccc2)nc1-c1ccccc1 | – | inactive: 7.01%
CC(=O)Nc1cccc(C(=O)NC2CCCc3c2cnn3-c2ccc(C(C)(C)C)cc2)c1 (centres undefined) | – | inactive: -46.9%
COC(=O)Cn1c(=NC(=O)c2ccc(OC)cc2)sc2cc(OC)ccc21 | – | inactive: 32.8%
COc1ccccc1NC(=O)N1CCC(C(=O)c2ccc(Cl)cc2)CC1 | – | inactive: 14.3%
O=c1c(Cl)c(Cl)cnn1Cc1ccc(F)cc1 | – | inactive: -59.6%
CCOc1ccccc1CN1CCC(n2nccc2NC(=O)CCc2ccccc2)CC1 | inconclusive: 0.316 µM [activator, full curve, poor fit] | –
CCOC(=O)C(Sc1ncn[nH]1)c1ccccc1 (centres undefined) | inconclusive: 5.01 µM [activator, single point] | –
CCOc1ccc(NC(=O)Nc2cc(C)on2)cc1 | inconclusive: 2.51 µM [activator, full curve, poor fit] | –

SMILES | Potency | activation
O=C(N/N=C/c1ccc([N+](=O)[O-])o1)c1ccncc1 | – | inactive: -38.2%
CCOC(=O)CSc1nnc([C@H](Cc2ccccc2)NC(=O)OC(C)(C)C)o1 | – | inactive: 18.4%
COc1ccccc1C(=O)Nc1ccccc1N1CCCCC1 | inconclusive: 28.2 µM [activator, single point] | –
CCOC(=O)CN1C(=O)CSc2ccc(S(=O)(=O)N3CCCC3)cc21 | – | inactive: 0.113%
FC(F)(F)c1nc(=S)c2ccccc2[nH]1 | inconclusive: 2.51 µM [activator, partial curve, poor fit] | –
N/C(CCS(=O)(=O)c1ccc(Cl)cc1)=N\OC(=O)c1ccc(Cl)cc1 | – | inactive: 11.4%
CC(NC(=O)c1ccc(Br)cc1)C(=O)NC1=NCCS1 (centres undefined) | inconclusive: 5.01 µM [activator, single point] | –
CC(=O)N1CCN(C(=O)c2ccc(Cl)c(NC(=O)c3cccs3)c2)CC1 | inconclusive: 2.51 µM [activator, full curve, poor fit] | –
CCc1n[nH]c(=S)n1/N=C/c1ccc(-c2ccc(Br)cc2)o1 | – | inactive: 16.6%
CC1CCCCC12NC(=O)N(CC(=O)OCC(=O)NC(=O)c1ccccc1)C2=O (centres undefined) | – | inactive: 10.1%
CCOC(=O)C1=C(C)N(C)C(=S)NC1c1ccccc1 (centres undefined) | – | inactive: 1.21%
COc1cc(OC)cc(C(=O)N2CCN(C3CCN(Cc4ccccc4)CC3)CC2)c1 | – | inactive: -20.6%
COc1cccc(NC(=O)CN2C(=O)NC(Cc3c[nH]c4ccccc34)C2=O)c1 (centres undefined) | inconclusive: 5.01 µM [activator, single point] | –
COc1ccc(OC)c(C2C/C(=N/O)C(C)C(c3cc(OC)ccc3OC)N2)c1 (centres undefined) | inconclusive: 3.98 µM [activator, single point] | –
CC1=C(C(=O)Nc2cccc(C)n2)C(c2ccc3c(c2)OCO3)C2=C(CC(c3ccco3)CC2=O)N1 (centres undefined) | – | inactive: 0.654%
O=C(O)c1[nH]c2ccccc2c1NS(=O)(=O)c1ccc(F)cc1 | inconclusive: 0.501 µM [activator, full curve, poor fit] | –
O=C(Cc1ccc([N+](=O)[O-])cc1)c1ccc(O)cc1O | – | inactive: 4.27%
Cc1cc(N2CCN(Cc3nc(-c4ccc(Cl)cc4)oc3C)CC2)cc(C)n1 | – | inconclusive: -78% [activator]
O=C(O)C1CC2CCC1CC2 (centres undefined) | inconclusive: 5.62 µM [activator, partial curve, poor fit] | –
Cc1nc2ccc(S(=O)(=O)NC(C(=O)NCc3ccco3)C(C)C)cc2s1 (centres undefined) | – | inconclusive: -8.17% [activator]
O=C1c2nccnc2C(=O)N1c1ccc(F)cc1 | inconclusive: 5.01 µM [activator, single point] | –
CC1=C(C(=O)NC2CCCc3c2cnn3-c2cccc(C)c2C)OCCO1 (centres undefined) | – | inactive: -51.5%
O=C(Oc1ccc(Br)cc1C(=S)N1CCOCC1)c1ccc(F)cc1 | inconclusive: 31.6 µM [activator, partial curve, poor fit] | –

SMILES | Potency | activation
Cc1ccc(C(=O)N/C(=C\c2ccc(F)cc2)C(=O)NCCN2CCOCC2)cc1 | inconclusive: 17.8 µM [activator, single point] | –
Cc1ccc(C2OCC(C)([N+](=O)[O-])CO2)cc1 (centres undefined) | inconclusive: 2.24 µM [activator, partial curve, poor fit] | –
O=C(NCc1ccccc1CN1CCCC1)c1ccc(S(=O)(=O)Nc2ccccc2)cc1 | – | inactive: -35.2%
CC(=O)Nc1ccc(NC(=O)C(=O)NCC(c2ccco2)N2CCc3ccccc32)cc1 (centres undefined) | inconclusive: 10 µM [activator, partial curve, poor fit] | –
CCCCc1ncc(CN2CCC(n3nccc3NC(=O)C(OC)c3ccccc3)CC2)[nH]1 (centres undefined) | inconclusive: 28.2 µM [activator, single point] | –
Cc1ccc(S(=O)(=O)N(CC(=O)N(C)C)c2cccc([N+](=O)[O-])c2)cc1 | inconclusive: 2.51 µM [activator, partial curve, poor fit] | –
COc1ccc(CCNC(=O)Nc2ccc([N+](=O)[O-])cc2)cc1OC | inconclusive: 5.01 µM [activator, single point] | –
CCCCOc1ccccc1C1C(C(=O)OC)=CN(CC)C=C1C(=O)OC | – | inactive: 3.51%
Cc1cc(C)c(NC(=O)CSc2nnc(CNC(=O)c3c(F)cccc3Cl)o2)c(C)c1 | inconclusive: 28.2 µM [activator, single point] | –
CCc1nc2ccc(C(=O)N3CCN(c4ccccc4)CC3)cc2nc1CC | – | inactive: 4.48%
CCN(CCN1CCCC1)C(=O)c1cc(COc2ccccc2SC)on1 | inconclusive: 11.2 µM [activator, partial curve, poor fit] | –
CNc1c(NS(=O)(=O)c2ccc(Br)cc2)c(=O)oc2ccccc12 | inconclusive: 2.82 µM [activator, partial curve, poor fit] | –
CC(=O)N(CCc1ccccc1)Cc1cc2cc(C)ccc2[nH]c1=O | inconclusive: 0.501 µM [activator, full curve, poor fit] | –
COc1ccc(NC(=O)CC2SC(=O)NC2=O)cc1 (centres undefined) | – | inactive: -2.56%
O=C(N/N=C/c1ccc(O)cc1)c1cncc(Br)c1 | inconclusive: 12.6 µM [activator, single point] | –
Cc1ccc(-c2nc3ccccc3c(=O)o2)cc1 | inconclusive: 5.01 µM [activator, single point] | –
O=C(NCCc1ccccc1)c1cc([N+](=O)[O-])ccc1N1CCOCC1 | inconclusive: 5.01 µM [activator, single point] | –
CN(C(=O)CSc1nc2scc(-c3ccccc3)c2c(=O)[nH]1)c1ccccc1 | inconclusive: 2.24 µM [activator, partial curve, poor fit] | –
CN(CC(=O)NCc1cccnc1)S(=O)(=O)c1ccccc1 | inconclusive: 12.6 µM [activator, single point] | –
CCOc1ccc(-c2nnc(-c3cccs3)o2)cc1OCC | – | inactive: 5.94%
Cc1cccc(C)c1NC(=O)CN(c1ccccn1)S(=O)(=O)c1ccc(F)cc1 | inconclusive: 5.01 µM [activator, single point] | –
CCC(Oc1ccccc1)C(=O)O/N=C(\N)c1ccc(OC)c(OC)c1 (centres undefined) | inconclusive: 3.98 µM [activator, single point] | –
O=C(Nc1cccc([N+](=O)[O-])c1)c1ccccc1 | inconclusive: 0.501 µM [activator, full curve, poor fit] | –

Entries of single compounds as entered above.
`CCCCc1ncc(CN2CCC(n3nccc3NC(=O)C(OC)c3ccccc3)CC2)[nH]1` (centres undefined) reads Potency: inconclusive: 28.2 µM [activator, single point]
`COc1ccc(CCNC(=O)Nc2ccc([N+](=O)[O-])cc2)cc1OC` reads Potency: inconclusive: 5.01 µM [activator, single point]
`O=C(Nc1cccc([N+](=O)[O-])c1)c1ccccc1` reads Potency: inconclusive: 0.501 µM [activator, full curve, poor fit]
